Source: paper doi:10.1101/2025.10.06.680677
Where two headings read alike, the source gives them in different places. These are yes or no findings as the source states them, for the method shown. Some entries that bind do so weakly or less than the wild type.

Protein sequences, listed by entry. Tags and fused reporters are not part of them. Residues count along the entry.
UniProt Q43125, residues 1-509: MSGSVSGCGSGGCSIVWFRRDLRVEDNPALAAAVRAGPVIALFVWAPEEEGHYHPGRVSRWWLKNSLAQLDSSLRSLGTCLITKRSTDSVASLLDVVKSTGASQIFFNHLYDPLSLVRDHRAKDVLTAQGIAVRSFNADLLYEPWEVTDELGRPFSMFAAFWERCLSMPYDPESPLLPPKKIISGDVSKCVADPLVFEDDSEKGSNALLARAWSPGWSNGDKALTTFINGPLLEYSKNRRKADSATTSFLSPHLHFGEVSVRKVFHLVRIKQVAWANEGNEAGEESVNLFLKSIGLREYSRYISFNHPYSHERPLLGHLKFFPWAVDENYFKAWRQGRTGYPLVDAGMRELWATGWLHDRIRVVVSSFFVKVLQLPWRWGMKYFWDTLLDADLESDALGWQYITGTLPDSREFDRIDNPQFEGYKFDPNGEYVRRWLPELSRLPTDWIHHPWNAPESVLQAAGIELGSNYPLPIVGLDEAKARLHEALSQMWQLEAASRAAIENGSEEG

Key:
Test in all cases: native MS
[1] = molecular target: Arabidopsis thaliana CRY1 PHR domain (residues 1-509) (Arabidopsis thaliana) (UniProt Q43125)
[2] = molecular target: Arabidopsis thaliana CRY1 PHR domain (residues 1-509) (Arabidopsis thaliana) (UniProt Q43125); remark: listed apart in the source
[3] = molecular target: Arabidopsis thaliana CRY1 PHR domain (residues 1-509) (Arabidopsis thaliana) (UniProt Q43125); remark: listed apart in the source
[4] = molecular target: Arabidopsis thaliana CRY1 PHR domain (residues 1-509) (Arabidopsis thaliana) (UniProt Q43125); remark: listed apart in the source
[5] = molecular target: Arabidopsis thaliana CRY1 PHR domain (residues 1-509) (Arabidopsis thaliana) (UniProt Q43125); remark: listed apart in the source

In the case of “Arabidopsis thaliana CRY1 PHR domain (residues 1-509) (from UniProt Q43125 1-509) (domain or fragment)”, the binding [1] is reported as “binds weakly”, the binding [2] is reported as “no binding (condition: in darkness)” and the binding [3] is reported as “binds weakly”.

B1: Blue-light Inhibitor of Cryptochromes 1 (BIC1) triple mutant C99A, C105A, C136A (protein, UniProt Q9LXJ1 1-140)
chain: MMNIDDTTSPMAHPIGPSQPPSDQTKQDPPSLPQEAASSVSADKKDLALLEEKPKQSQEEDRVDTGRERLKKHRREIAGRVWIPEIWGQEELLKDWIDASTFDTALVPAGISSARTALVEEARRAASASGGLHNRALILR
For B1, the binding [4] was “binds” and the binding [5] was “binds”.
